The list shows a part of the results. These are raw signals, not scaled to a control.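 Primary screen: polymyxin B was added at a level permeabilizing Salmonella outer membranes while sparing inner membranes. DMSO wells, both with and without polymyxin B, established maximum growth. Plate-to-plate variation meant each plate was ranked on its own, and the lowest-OD600 compounds were selected as hits.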

The results in this text go back to the supplement of paper PMC12889115.

The assay concerns Salmonella enterica serovar Typhimurium SL1344. Briefly: bacterial growth OD600 after 18 h with compound and polymyxin B; higher = more bacterial growth (less inhibition). The following applies: 50 µM, Mueller-Hinton broth.

With `COc1ccccc1CNC(=O)c1c(OC)cc(=O)n2c1CCN(Cc1cccc(F)c1F)CC2`, the “bacterial growth OD600” value (polymyxin B 0.75 µg/mL) came out at 0.82.
As for `CN(Cc1ccon1)CC1(O)CCCN(CC(C)(C)C)C1=O` (stereo unspecified), for the setting “polymyxin B 1 µg/mL”, the “bacterial growth OD600” value was 1.01.
The same measure, in the same setting: as for `COC(=O)CCC(=O)N1CCCC(C(=O)Nc2cccc(-c3ccc(F)cc3)c2)C1` (stereo unspecified), the figure is 0.719.
Consider `COc1ccc(Cl)cc1S(=O)(=O)N1CCOc2c(cc(-c3cnc4ccccc4c3)cc2OC)C1`, for which the “bacterial growth OD600” value (polymyxin B 0.75 µg/mL) came to 0.779.
For the compound `Cc1cc(C)n(CC(=O)NC2CCCc3nc(N(C)C)ncc32)n1` (stereo unspecified), the “bacterial growth OD600” value (polymyxin B 0.75 µg/mL) was found to be 0.858.
Same read-out and setting: with `CCN1CCN(C(=O)c2ccc(N3CCC(NC(C)Cn4ccc5ccccc54)CC3)cc2)CC1` (stereo unspecified) the figure was 0.965.
Consider `CC(=O)NC1CC(=O)N(Cc2cccc3ccccc23)C1` (stereo unspecified), for which the “bacterial growth OD600” value (polymyxin B 1 µg/mL) is 0.942.
Turning to `C=CCC(=O)NCc1cccnc1Oc1ccccc1OC`, the “bacterial growth OD600” value (polymyxin B 0.75 µg/mL) turned out to be 0.849.
Same read-out and setting: as for `COC(=O)c1cc(CNC(=O)CCc2ccc3c(c2)OCO3)cc(NC(=O)c2ccccc2OC)c1`, the figure is 0.813.
For `C=CCN1CC(C(=O)NCc2ccc3[nH]c(C)c(C)c3c2)CC1=O` (stereo unspecified), the “bacterial growth OD600” value (polymyxin B 1 µg/mL) came out at 0.898.
Still for that read-out and setting: as for `CC(=O)N1CCC(NC2CCCc3c2cnn3-c2ccc(C)c(C)c2)CC1` (stereo unspecified), the figure is 1.01.
As for `O=C(CCC1(Cc2ccc3ccccc3c2)CCC(=O)N1)NC1CCCc2ccccc21` (stereo unspecified), the “bacterial growth OD600” value (polymyxin B 0.75 µg/mL) was 0.016.
Still for that read-out and setting: with `COc1ccc(C(=O)CCC(=O)N2CCCC(c3nc(C)ncc3-c3cccc(C)c3)C2)cc1` (stereo unspecified) the figure was 0.914.
Still for that read-out and setting: with `COc1cc(CN2CCOC(Cc3ccccc3)C2)cc(OC)c1OC` (stereo unspecified) the figure was 0.839.
As for `COc1ccc(NC(=O)N2CCCC(CNS(=O)(=O)c3cccs3)C2)c(C)c1` (stereo unspecified), the “bacterial growth OD600” value (polymyxin B 1 µg/mL) turned out to be 0.862.
`CN1CCC(N2CCCC(CNC(=O)c3cccc4ccccc34)C2)CC1` (stereo unspecified): the “bacterial growth OD600” value (polymyxin B 0.75 µg/mL) came out at 1.
Same read-out and setting: as for `CCN1CCN(C2(C(=O)NCCCSC)Cc3ccccc3C2)CC1`, the figure is 0.771; as for `O=C(NCCCc1ccccn1)c1ccc(N2CCC(N3CCCC3)CC2)nc1`, 0.798.
On to `Cc1nc(N2CCCCCCC2)ncc1C(C)NC(C)C` (stereo unspecified), for which, for the setting “polymyxin B 1 µg/mL”, the “bacterial growth OD600” value came out at 0.661.
With `COc1cc(CN2CCN(C3CCCCC3)CC2CCO)cc(OC)c1` (stereo unspecified), the “bacterial growth OD600” value (polymyxin B 1 µg/mL) was found to be 0.814.
Same read-out and setting: as for `O=C(c1cccnc1)N1CCC2(CCCN(Cc3cccc(F)c3F)C2)C1` (stereo unspecified), the figure is 1.11.
Consider `COCC(=O)Nc1cc(C(=O)NC(C)Cc2ccccn2)cc2ncn(CCc3ccccc3)c12` (stereo unspecified), for which the “bacterial growth OD600” value (polymyxin B 0.75 µg/mL) amounted to 0.794.
As to `Cc1ccccc1CCN1CCCC(CN(C)C(=O)C2(C)CCCCC2)C1` (stereo unspecified), the “bacterial growth OD600” value (polymyxin B 1 µg/mL) was 0.723.
Consider `CC1CN(Cc2nc3ccccc3n2C)Cc2cc(Cl)ccc2O1` (stereo unspecified), for which, under “polymyxin B 0.75 µg/mL”, the “bacterial growth OD600” value amounted to 0.
For `O=C(c1ccc(OC2CCN(C(=O)C3CC3)CC2)cc1)N1CCCCCC1`, the “bacterial growth OD600” value (polymyxin B 1 µg/mL) amounted to 0.886.
Turning to `CN1CCN(c2ccc(C(=O)NCCC3COc4ccccc4O3)cn2)CC1` (stereo unspecified), the “bacterial growth OD600” value (polymyxin B 1 µg/mL) worked out at 0.846.
Still for that read-out and setting: as for `CN(C(=O)c1cccc(-n2cccn2)c1)C1CCCN(CCc2ccccc2)C1` (stereo unspecified), the figure is 1.22; as for `COc1cccc(NC(=O)CCC2CCN(C(=O)c3cccnc3SC)CC2)c1`, 1.02.
On to `Cc1cc(C)n(-c2ccc(F)cc2CNCc2cccnc2N(C)C)n1`, for which the “bacterial growth OD600” value (polymyxin B 0.75 µg/mL) amounted to 0.812.
As to `Cc1nc2cc(OCc3cc(C(=O)N(CCO)Cc4ccccc4)no3)ccc2s1`, the “bacterial growth OD600” value (polymyxin B 1 µg/mL) came out at 0.769.
The same measure, in the same setting: as for `O=C(c1nc2sccn2c1CNCCCOc1cccnc1)N1CCCCCCC1`, the figure is 0.916.
